# In all, about 410,000 compounds went through this assay and about 6,400 (1.6%) were called active. Listed are the inconclusive results; actives and inactives stand elsewhere. The call rests on the fitted dose curve; in most records, active means well fitted inhibition curve with a large enough effect; inconclusive means small, poorly fitted or top-dose-only effect; inactive means no such curve, though single readings can be large or run the other way.
# The chains behind the UniProt entries cited, without tags or fusion partners.
# UniProt P43220, whole entry: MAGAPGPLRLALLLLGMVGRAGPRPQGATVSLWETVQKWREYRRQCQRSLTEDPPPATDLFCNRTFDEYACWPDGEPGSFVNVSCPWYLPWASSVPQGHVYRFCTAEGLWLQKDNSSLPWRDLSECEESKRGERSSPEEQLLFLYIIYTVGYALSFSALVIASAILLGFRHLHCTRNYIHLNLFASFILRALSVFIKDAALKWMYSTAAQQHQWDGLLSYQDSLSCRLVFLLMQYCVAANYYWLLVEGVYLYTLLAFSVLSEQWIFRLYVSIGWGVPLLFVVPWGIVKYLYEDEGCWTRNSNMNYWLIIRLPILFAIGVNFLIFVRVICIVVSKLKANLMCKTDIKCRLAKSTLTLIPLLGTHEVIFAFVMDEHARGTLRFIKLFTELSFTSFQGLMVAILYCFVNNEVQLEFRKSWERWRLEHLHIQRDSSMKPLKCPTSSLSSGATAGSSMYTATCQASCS
# Molecular target: Glucagon-like peptide 1 receptor (Homo sapiens) (UniProt P43220)
# Test: qHTS of GLP-1 Receptor Inverse Agonists (Inhibition Mode); further: nearly all actives have a fitted effect of over 55% in size
# Details: HEK293 GLP-1R CRE-luciferase, luminescence, 24 h; GLP-1R form is constitutively active
# Potency means the concentration at half of the fitted maximal effect.
row,Structure (SMILES),Potency
1,CC(C)(C)OC(=O)N1CCC(N(C(=O)c2ccccc2)c2ccc(Cl)cc2)CC1,inconclusive: 31.6 µM
2,CCCN1CCC(Nc2cc(OC)cc(OC)c2)CC1,inconclusive: 11.2 µM
3,O=C(NCC1(N2CCOCC2)CCCCC1)c1cc(Br)ccc1Cl,inconclusive: 28.2 µM
4,COc1cc(C(=O)NCC2(N3CCOCC3)CCCCC2)cc(OC)c1C,inconclusive: 12.6 µM
5,CCc1cc(C(=O)NCC2(N3CCCCC3)CCCCC2)sc1C,inconclusive: 10 µM
6,O=C(OC1CN2CCC1CC2)C1c2ccccc2C=Cc2ccccc21 (stereo unspecified),inconclusive: 3.98 µM
7,CN1CCC(Nc2ccc(F)c(Cl)c2)CC1,inconclusive: 7.08 µM
8,CCCOc1ccc(C(=O)NCC2(N(C)C)CCCCC2)cc1,inconclusive: 10 µM
9,CC(C)(C)OC(=O)N1CCC(Nc2ccccc2)CC1,inconclusive: 28.2 µM
10,COc1cccc(C(=O)N(c2cc(C)cc(C)c2)C2CCN(C(=O)OC(C)(C)C)CC2)c1,inconclusive: 3.55 µM
11,CN(C)C1(CNC(=O)c2ccc(C(C)(C)C)cc2)CCCCC1,inconclusive: 12.6 µM
12,O=C(NCC1(N2CCOCC2)CCCCC1)c1cc2ccccc2o1,inconclusive: 28.2 µM
13,COc1ccc(Cl)cc1C(=O)NCC1(N2CCOCC2)CCCCC1,inconclusive: 3.55 µM
14,O=C(OC1CN2CCC1CC2)C1c2ccccc2Oc2ccccc21 (stereo unspecified),inconclusive: 11.2 µM
15,CC(C)c1ccc(NC2CCN(C(=O)OC(C)(C)C)CC2)cc1,inconclusive: 28.2 µM
16,O=C(NCC1(N2CCOCC2)CCCCC1)c1cc(F)c(F)cc1Cl,inconclusive: 7.08 µM
17,CCCCOc1ccccc1C(=O)NCC1(N2CCOCC2)CCCCC1,inconclusive: 10 µM
18,CSc1ccc(C(=O)NCC2(N3CCOCC3)CCCCC2)cc1,inconclusive: 11.2 µM
19,CCN1CCC(Nc2ccc(Cl)cc2)CC1,inconclusive: 3.55 µM
20,CCCOc1cccc(C(=O)NCC2(N3CCOCC3)CCCCC2)c1,inconclusive: 8.91 µM
21,CC(C)c1ccc(C(=O)NCC2(N3CCOCC3)CCCCC2)cc1,inconclusive: 11.2 µM

# Source: PubChem BioAssay AID624417 (National Center for Advancing Translational Sciences (NCATS), 2012)
